Results taken from publication PMC6957481.
No constants are given. Whether binding was seen depends on the method and setting. Binding seen in cells or lysates may run through a third protein. Here binding means that the protein was enriched with, or labelled near, the bait; the list need not be complete. Each block holds one binder with its values, some of them ahead of it.

What was measured:
[1] = biological target: Mlh1-FZZ (Tetrahymena thermophila); test: affinity purification with mass spectrometry; FZZ-tagged bait expressed from its endogenous MAC locus, captured on anti-FLAG M2-agarose at 4 °C from Benzonase-treated whole cell extracts (10 mM Tris-HCl pH 7.5, 1 mM MgCl2, 300 mM NaCl, 0.2% NP40); cells in vegetative growth, starved 24 h, or conjugating (6 h post mixing); two biological replicates; SAINTexpress against untagged cells, FDR ≤ 1%
[2] = biological target: Hho1-FZZ (Tetrahymena thermophila); test: as above

B1: TTHERM_00442520 (protein, UniProt I7MD50 1-1039)
chain: MSNQKGEIPESILNDYLQMGLNEQLLRLAYRNCKGQVNSLLDEYQHLLASNNQVLNEQQNKISNLTDNMDEEVQLNQAILASQQEAKEKNISFEPLNPEQRIRKEGIPVGLKNLGNTCYINPLLQSYFYNAEFCYAIINFQKPSEEEIQKRLKNDSTQSNSSDEQFQKDSTEQNILLKRVKASVELVCALQELYILLVGSDKKYIDPSKVIKNIVDEQGNQIQIGDQQDIGEFNLTFLARIDEGLSYSKKSFNKGAMEEELVHSLMRASSTSISQGEQELQRSISISMSDTSVVNSNFFGKASIHMSYPLGEETFEKQEEELFNIIFLDIKHKELYYALDEYVVNHIDEFKNDKGDIVQAQKYNWIKRAPKTLFFQLQRVVFDKEKGCLKKLNDSFNFENQIYLERFTEERSKDYLRIREQVNKLIYEKQQYELALNNINQYSNHLSQNQTKSNAKPEENKDQQSNLGLLSALESTILFLQTNSKKVDVNPLVDPSYFGDNSKENLQIVKALEQYTSKVKQRIQELQEKIRQLENKINESYNGFKKEKYLLQSVIIHDGQADSGHYYAFIKDHSTKKWWRYNDIQVSEETEENVFKEALGGWGKASAYSLIYVKEEVAIPPQAKEKPIRLHLASNTVNQLSASQVRTVDYYTSIIPEDLLNNLCVENLKFQEEIEEYKASNTSRQIIDMYTRRFELNNECARKGDEARKKVKGSPPPFIQFCVYLKLHPKNDKGQFDDLIKWLILDSCVREHYKNAQHLNNLSDKKLEDKLKQQIASLGNFKAPKSIKISAENSDTIEQINSEFIKQLNNAEATIFAMQAALKFDWISSLAAFDYLIDLNFFSDQNKQAQFKDDYFFKISRDTKLIILIAMLHYYELKVPFCTKEDSQEILNGIQVFIGFYKKQNKPDQKTQVTFSLWIDDISQLASDQNLQQEIKKINSEYMSASNNNRYIQGEEPLKNIPTELKERLEKLTSEGDMYYWNANKKEDYLFNELISNFDKIKAHFDTYIKFIQKIRASQTPLFKQDRLFSTNVQSYNIK
- binding [1]: binds

B2: hypothetical protein TTHERM_00105100 (protein, UniProt Q234I6 1-266)
chain: MLLYNIDQDEGNQQQDTENRQNNNQDYSYGNEQRRQVQQMELELQNANNIDTQSENNQQKAQQNQKSMVEEIDEDKIRQEKFDQKEKEFRDAQLREKKMCMKVHFKNKQIIEIKKLVEQNTLTLQYYEQKKYLQPTDVNYSRSLLEEYCSLRDKINKCNETLRQLKIKRWDSETFFQNLKDLQRQEESLSSYIKISEYTKEQKQQEIKRIEEYKEQIKKINDEIEKLKEKHIQNSDNYSTIKLQLKEQNQKNESLRQQIESLKRNN
- binding [2]: binds

B6: Rpl19 (protein, UniProt P0DJ60 1-185)
chain: MVSLRLQKRLAASVLKCGQKRLWLDPNESSEISMANSRASIRKLIKDGLVMKRSTVIHSRSRARAFLEAKRKGRHTGSGKRKGTRNARMPTKVLWMRRQRVLRRLLRKYRAAKKIDKHQYHEFYLGSKGNLYKNKTVLIEAIHVSKADKIKSDKLTSQQEARRAKNTASRAKRNEKAQIVAKVDV
- binding [2]: binds

B8: TTHERM_01082940 (protein, UniProt Q22BX4 1-462)
chain: MSQQQQYKGKCNCPFCSRFNKMQGEINRDEIEESKENQSNSYSQNYQQYEKLKSSQVQQDENDQNQYVQNNQQYEIQQNQNDQNNQNNPLYDQPFKFEVNHNIDNDLQMIKDWIGQFSNLKDVQQQNEASHDFMQNFVTQYPTSDLSLPDISFHFKPDGSQAILFSIFCQPEILQKCVAKRNDIAELFYDSIGFTILLVIKPKIDYKNFDQKHQEFNSNEIPLEVFISNKFESQQKILYKIGLQAKRQIKVFPQIQNLRLRRDLNELFECLDDKFEFNYSNCSDHCFAYYTQSDNLNQLEGLIIGPQDTPYEGIPYTVTIQIPDQYPIEPPKVTFNQQILHPNISEQGEICLNILQDKWSTVLTIQKVLVSIVSLLYEKNLDDVYNHYAKTLYQEDPEEYKTLIKKQSILQDSQKLKIDFKQLAKVPINEQNGYDEYENNDGYNTYEGYDDDDYQYMDIEDE
- binding [1]: binds

B11: hypothetical protein TTHERM_00295430 (protein, UniProt I7MIE0 1-212)
chain: MGGDHHHEDSHHKSNVDQHELKAEMIKELSHYYDHHDLSLFGKVQHFVEHLLEEKHHAKINTSNFDQKKLENFSESKQISRTVFALKKIKTFNHDFFTSEEEMILEPLPLGILTYGLKYAFAGVDAALLTYFWRNWNFNVRTIGLLGGLVGIQMATLHIPNLVNEVVIQTPRRRALAKKYISAYGPQFFHDIVNPKYDIEHLRHLQNKLNPY
- binding [1]: binds

Continued, values first:

- binding [2]: binds
B3: Rpl21 (protein, UniProt Q23TC8 1-157)
chain: MTHSYGYRRQTRKKFAKAYKTKGHVRISRYLTTYKVGEYVDIMVDGSQHKGMPYKLYHGRTGKVFNVNPRSIGVIVHRIVNGRYIEKRLHVKIEHVRPSNVKTALSKRYQANDQAKAEGNKAGKRVSTKRNPGQPLEAVQVQGAVNFQHPKVFREIF

- binding [1]: binds
B4: hypothetical protein TTHERM_00586710 (protein, UniProt I7M8T5 1-694)
chain: MSNDNKSNASSRLSALNSQMPELSPSQLLHSYRNRSKVDRQGLYETFYGPKWEFRNKVYDIICNNSEKFSAPYIDEHDRERTRYAAFKELHFIQKSLNMGYAEYQKDPHAFSMTSNAVYSWSPAICVKYGVHFSLYGKTLMNLGTEKHLPYIYRMMKLEDIGSFGLTEMGHGSNVRGIKTTAIYDPQSNEFIINTPEEVDMKFWIGATAQLANMTVCWAQLYVEGKCHGVHAFLVPIRNKDTHRVMPGITVGDCGPKNGLDGIDNGFMIFHNVRIPYDNLLDKFSQIENGKFKTWIESDDKRFGFQMASLSGGRVQVACNSNQNSIIAVAIAGRYSTIRKQFGAPGKPEQPIIEYPLTQYRIIPNVATAIVLQLSTITLSILWDENQKHLLDVKNTLINELHAISSAIKAISTWTAQRIITESRQILGGHGFSTFNRFGQLYNDNDVNVTWEGDNNVLLQQTGKFLLDSAKKLMKGKKLPFKCTSYISLDPAEGQQSELNSNEDFFNQGKLLKALQWRVNLLLQKTGLKMQEYMQVSKNGWDAFNNAQPFYSVELAKAFGDTWSAEQAIETISKVQNPENKRVLSDFVTLYLLETINKDIGNFRFGGYINCQQYEQIRSSILKLCNKLKDEFIAVLDALAPPDFILQAPFGASDGDIYNRYIGLIYSAKSTFKRPDWWKEVHKAHKKYHFEIDA

- binding [1]: binds
B5: hypothetical protein TTHERM_00616320 (protein, UniProt I7MAF0 1-127)
chain: MLARTLKNYMRVQQNLRFSRANIEKSPAPPTIGQVELEPFKFNHERDQLIYGYTMEELYGKKFGLKHSATVLREIKKDTIMMILFIIGGFTYCYHMRETRFQLDDDFNEYVNTNKQTFRPIPDHVKL

- binding [1]: binds
B7: hypothetical protein TTHERM_00494750 (protein, UniProt I7M9X8 1-628)
chain: MLKYFNLFNKNITSVQLLNQKFAFTFCSTQQPQQEETQNQQKQQQQQRKGQNKNQGKQHGGSQKNSIQQKDLDQFLNTLLQDADARKISASRYDIDLYRRESIKNRFNIMSFALAKCYIQHMKFFNEFFSEKDFENLIIKYEVKNLDQFVFNFSLATALTLNVNNKQIQKKYKYLYSQYLKFYQSIDQNESTSSSTAIQKLMFVLNIINFGNNQKQYLDYVKEFIPTYFQQVLESVQFYSKDSYDINDILFASKYYNFTQTFNKQDAFDKYCKVLSQVKLDQNQTISKYDALNLIQAASHATFQQKNFIIQNQQVLDEIVKMCLDALEGDLQKELNLEFVYFYIMSSETFIKNKEENMKYCKLLEKNLEREHSNQIKTNILYSLGKSSIVTPKIKEYIQSSINNIQTEKIHQFDKYVSCLLLCAANLGIITKDNISKYLIESIFSSDIKFRYKYIDYLAIVFYRIQYFEKDVWEQIFQRIDHNQESFYLNLIRCSYKAYQNLMSQETLALFEQNLGKQSKSFTLKENPIQIQEEIQLKNYLEQKNISHKQSQFVDGFYTNFILNEKDVVFILKYNSYLVEENSTEVKFNLSTQSKIDYFQKLGYNLIILNSSEGDVCQLFEQAYKPSN

- binding [1]: binds
B9: TTHERM_00402120 (protein, UniProt I7MIM2 1-410)
chain: MTYQLLAPAGNFRANMLLTIAELVGVKLELVHTEYAATKTPEFKQKNPLGKVPVLITPEGPVYESNAIARHLARTAGKLYGANQHEAALVDQYLDMAVTELLPSLTTTLYAIFGFKPADKEVLKAAKQETFSVLRILNERLTHHKYLAGENLTIADIQLATFLNLAFRVTISGEQKKPIAKVVEYFVRVAQLPEFTKYHGRPHFATSEFQTVAAPAAEAKDNKKKEAAKAKEAPKPKEAPKKKEEKVEEEEKEEQPASGWNLYDYKTLYVNAKNKEEAIQNLVENFDAKTMCIYHLHYQKYTGDGQVLYLFNNMKNNFLQRCDPARKVAFGTYSIYGEEPNLEISGVWLFMGATIPPQMNENPSFEYHDLKQLDITKAEDLQILRNYWTNTEEDTSVVDGLRLRSFGSFK

- binding [1]: binds
B10: hypothetical protein TTHERM_00220810 (protein, UniProt I7LVZ7 1-1407)
chain: MSLFSELPLDAGTDEQITQIAVSNVSINPSLAIITPHKILLFNECGEKHDYELSRNIRCTYVQWHPSQPIIALGWETGAITLWSEETKVAKEEPNGHKSEICLIQFNPSGSRMVSADIDGNVTVWRGINIVSQYKKEQSITHAIFCELNIDSKLKSGNLFFFGGKSGVVCLADDANHCSDVCKVGGSIKSLLFYEKENSVIIITSTLLLVMFKISTSVKTGPSKRVKLSISGDPQKLQSIWIGSCLLATCSHENMLRMWHLDQDDNYVLTLHQLAQQTQTQQGAATVIQSTNTNDQITSIQYEKRGKVLVAGTREGRIIFWKNLSIGSESPLDVDEWKMLPYVSVRQGVNSIAVGQNNGLIAVQYGNQISLVQETVINGKMTDQVRLLQSSANTIKIYINNDISNQVLHFQSKGNIKGLDCNDQFMLLWTSKTIEIHEIIINPKESQTKLVASIQEKCLRSVIHKENIILVNDMELNVLNFKGIQKQNLKFSESEGKILNVNVLNNHLIMWTSNNYIRLFDISRREVKQIGVTRRFENSQGQLGQIRYCAVNSDGSKIVITADQRGKSGPQADNKFYIYDVQTDNFLLYEMPAKCIPLQPYCDRKDRKFFGISCIINKNIQQEKNADENNDENEDNKSDKSRNEDDDEKDKSNLEFYTFFVTSENGIRKQDQYQLESSIEAVFAIDIPKLYFIKRNKKTNSSGQNYKIVEKYLNDFVGLEKIDNQIKEAIMNFSFYLTMDNLDEAYKSVKQIQNPSIWEKMASMCVKTKRIDVAEICLGNMRFARGSKAIREQKKEPELDAQLAMVAIQLNMKDEAVKLYEQSKRYDLYNKMLQAEGNWEKAIQISENHDRINLKNTYYRTAQMYEVSNNYEQAILYYEKSGTHVKEVPRMLLEAGQTEQLERYIIDKNEKPLFKWWAQYLESNYRIELAVKFYRQSEDYDQMVRLFLTKNDVQTASSICSETNNSAACYILAKYLEMNGQIPEAIQYYWKSQHYTQAVRLAREKGMDNEVMSISLQGPNQVKLQSAAYFEEKGFKQKAVELYKKGGNLIKAYNLAQEEKLYDEAKQIARQIEQEEDQRNKKRDPNDLAGIIDDFIEKGQPERAVPLMIKAKQFERAIETCIRFNIPITQDLVDKIIPTEPAKNAAEENKRKELMKLIADTSIKQGDYRLSSKLYTKLGNQVEAMKCLINLGAIDEVVNYATMARMPQLYILAGNFLQTTDWHKNPQLMKHIITFYNKAKAYDNLAGFFDACSSVEIDEYRDYEKAAAALNEALKHAKKSTSESRDFRIEQLETKLNLVQKFVQARALFSSDPQQMKQICEDLLAQPGIDQSVRSGDIYAQIIEYYYQVKNFSQAFDYIKKMQQKRIILAPYLDQEMLQQILESQGVSLNSKNKNNDDEFIEEDVPE
